Laboratory results from the supplement of paper PMC10849652.
Some of the results follow.

Amino acid sequences for entries named in this document (tags omitted). A change or cut given only in a name is not applied to a line headed by its entry.
UniProt O43929: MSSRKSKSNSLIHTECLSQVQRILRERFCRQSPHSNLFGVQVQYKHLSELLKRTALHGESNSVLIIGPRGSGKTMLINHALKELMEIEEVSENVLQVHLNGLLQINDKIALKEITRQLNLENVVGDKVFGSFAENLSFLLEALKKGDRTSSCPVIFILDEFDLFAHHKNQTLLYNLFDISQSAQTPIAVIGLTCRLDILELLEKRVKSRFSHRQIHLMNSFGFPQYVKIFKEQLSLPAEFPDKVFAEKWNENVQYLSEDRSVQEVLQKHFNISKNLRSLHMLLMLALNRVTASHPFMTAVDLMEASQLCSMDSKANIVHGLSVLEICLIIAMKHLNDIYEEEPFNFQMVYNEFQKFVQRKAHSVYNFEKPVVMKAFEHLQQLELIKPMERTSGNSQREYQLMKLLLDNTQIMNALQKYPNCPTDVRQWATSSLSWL
UniProt Q96E52: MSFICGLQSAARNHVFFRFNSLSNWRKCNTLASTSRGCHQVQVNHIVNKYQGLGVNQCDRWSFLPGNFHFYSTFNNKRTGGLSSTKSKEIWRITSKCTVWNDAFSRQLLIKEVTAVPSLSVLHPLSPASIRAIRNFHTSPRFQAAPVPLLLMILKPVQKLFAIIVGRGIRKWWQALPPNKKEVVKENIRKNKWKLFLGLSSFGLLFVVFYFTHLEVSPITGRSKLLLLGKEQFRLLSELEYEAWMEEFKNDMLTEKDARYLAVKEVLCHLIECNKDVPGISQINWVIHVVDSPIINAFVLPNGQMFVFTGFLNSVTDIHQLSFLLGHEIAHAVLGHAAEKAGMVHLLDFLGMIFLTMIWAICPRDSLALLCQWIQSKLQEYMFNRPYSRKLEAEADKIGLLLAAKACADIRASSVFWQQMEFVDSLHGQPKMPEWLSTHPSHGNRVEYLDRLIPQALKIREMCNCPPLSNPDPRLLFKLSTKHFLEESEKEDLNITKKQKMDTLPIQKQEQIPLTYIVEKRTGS
UniProt P13674: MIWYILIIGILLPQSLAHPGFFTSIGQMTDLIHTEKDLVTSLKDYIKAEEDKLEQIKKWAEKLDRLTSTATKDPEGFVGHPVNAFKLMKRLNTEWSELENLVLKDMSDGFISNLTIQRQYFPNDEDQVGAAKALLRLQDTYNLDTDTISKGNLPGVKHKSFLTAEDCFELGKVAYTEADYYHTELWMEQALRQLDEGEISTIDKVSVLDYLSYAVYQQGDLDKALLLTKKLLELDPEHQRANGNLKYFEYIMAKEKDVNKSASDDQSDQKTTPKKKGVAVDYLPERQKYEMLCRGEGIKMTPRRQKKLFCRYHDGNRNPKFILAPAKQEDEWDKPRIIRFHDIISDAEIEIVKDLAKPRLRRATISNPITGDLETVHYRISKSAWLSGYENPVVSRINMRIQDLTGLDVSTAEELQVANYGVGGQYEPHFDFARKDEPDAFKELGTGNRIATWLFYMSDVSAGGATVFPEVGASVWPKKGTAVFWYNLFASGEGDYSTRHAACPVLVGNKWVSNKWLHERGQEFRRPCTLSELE
UniProt Q8NFH4: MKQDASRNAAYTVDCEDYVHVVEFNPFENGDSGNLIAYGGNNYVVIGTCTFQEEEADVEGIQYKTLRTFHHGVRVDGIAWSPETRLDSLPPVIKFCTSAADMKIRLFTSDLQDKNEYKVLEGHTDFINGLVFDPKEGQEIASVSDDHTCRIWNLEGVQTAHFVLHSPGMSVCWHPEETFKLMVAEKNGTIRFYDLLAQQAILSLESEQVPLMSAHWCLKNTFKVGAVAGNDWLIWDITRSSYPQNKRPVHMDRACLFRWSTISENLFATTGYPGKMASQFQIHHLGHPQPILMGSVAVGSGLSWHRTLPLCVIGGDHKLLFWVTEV
UniProt Q8NFH5: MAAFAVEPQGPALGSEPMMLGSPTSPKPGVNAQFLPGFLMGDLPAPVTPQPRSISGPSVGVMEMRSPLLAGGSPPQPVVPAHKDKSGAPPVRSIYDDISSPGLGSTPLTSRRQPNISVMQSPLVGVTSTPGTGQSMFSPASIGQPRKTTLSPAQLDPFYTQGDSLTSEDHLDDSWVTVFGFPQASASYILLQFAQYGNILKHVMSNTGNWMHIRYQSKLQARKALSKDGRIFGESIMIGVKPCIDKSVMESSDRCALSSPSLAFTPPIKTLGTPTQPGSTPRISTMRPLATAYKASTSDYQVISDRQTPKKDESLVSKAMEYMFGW
UniProt Q8TEA1: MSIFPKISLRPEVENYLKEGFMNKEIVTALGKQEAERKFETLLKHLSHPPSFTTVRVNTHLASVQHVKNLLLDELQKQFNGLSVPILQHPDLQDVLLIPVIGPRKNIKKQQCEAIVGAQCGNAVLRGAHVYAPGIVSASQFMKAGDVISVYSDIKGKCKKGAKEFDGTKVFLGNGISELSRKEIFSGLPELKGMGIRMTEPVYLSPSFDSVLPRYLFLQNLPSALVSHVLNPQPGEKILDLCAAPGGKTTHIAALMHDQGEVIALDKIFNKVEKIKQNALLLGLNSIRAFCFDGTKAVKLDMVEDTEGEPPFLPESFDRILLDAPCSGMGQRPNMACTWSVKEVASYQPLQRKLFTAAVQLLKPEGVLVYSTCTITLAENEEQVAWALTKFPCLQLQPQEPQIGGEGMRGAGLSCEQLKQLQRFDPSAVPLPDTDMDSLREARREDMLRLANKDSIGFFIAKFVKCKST
UniProt Q9Y530: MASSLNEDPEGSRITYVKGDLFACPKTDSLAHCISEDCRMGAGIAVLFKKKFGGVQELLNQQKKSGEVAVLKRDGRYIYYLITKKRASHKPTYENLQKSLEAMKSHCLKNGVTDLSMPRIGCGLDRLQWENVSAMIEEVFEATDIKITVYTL
UniProt Q96DE0: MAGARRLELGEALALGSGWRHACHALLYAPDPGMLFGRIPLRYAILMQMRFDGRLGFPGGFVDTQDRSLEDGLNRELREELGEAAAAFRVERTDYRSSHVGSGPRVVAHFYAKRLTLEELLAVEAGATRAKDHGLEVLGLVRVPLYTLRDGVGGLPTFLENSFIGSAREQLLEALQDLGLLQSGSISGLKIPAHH
UniProt Q8N573: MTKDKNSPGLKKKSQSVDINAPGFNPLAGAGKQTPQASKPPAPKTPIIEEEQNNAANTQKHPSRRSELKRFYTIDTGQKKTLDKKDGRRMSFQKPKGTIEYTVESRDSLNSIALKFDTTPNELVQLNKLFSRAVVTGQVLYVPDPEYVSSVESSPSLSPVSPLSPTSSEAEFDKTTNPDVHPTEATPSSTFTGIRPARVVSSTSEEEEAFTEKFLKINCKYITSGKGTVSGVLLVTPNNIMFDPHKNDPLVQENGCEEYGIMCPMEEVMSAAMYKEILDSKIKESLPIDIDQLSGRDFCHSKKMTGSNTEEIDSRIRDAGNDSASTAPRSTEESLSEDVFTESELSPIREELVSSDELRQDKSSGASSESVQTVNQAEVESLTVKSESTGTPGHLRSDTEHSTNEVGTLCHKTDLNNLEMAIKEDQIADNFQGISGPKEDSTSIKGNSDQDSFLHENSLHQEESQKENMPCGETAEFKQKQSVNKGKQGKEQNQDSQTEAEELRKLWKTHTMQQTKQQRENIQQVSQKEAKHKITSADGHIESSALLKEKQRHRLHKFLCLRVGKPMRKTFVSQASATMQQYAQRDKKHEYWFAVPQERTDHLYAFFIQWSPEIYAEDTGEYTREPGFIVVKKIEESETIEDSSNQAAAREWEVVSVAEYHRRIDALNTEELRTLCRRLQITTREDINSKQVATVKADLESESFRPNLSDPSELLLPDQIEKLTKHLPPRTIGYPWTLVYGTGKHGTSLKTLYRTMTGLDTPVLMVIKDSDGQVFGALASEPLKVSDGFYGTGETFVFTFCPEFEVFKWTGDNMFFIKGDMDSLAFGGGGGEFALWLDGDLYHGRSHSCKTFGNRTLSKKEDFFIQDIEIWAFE
UniProt Q9Y6R0: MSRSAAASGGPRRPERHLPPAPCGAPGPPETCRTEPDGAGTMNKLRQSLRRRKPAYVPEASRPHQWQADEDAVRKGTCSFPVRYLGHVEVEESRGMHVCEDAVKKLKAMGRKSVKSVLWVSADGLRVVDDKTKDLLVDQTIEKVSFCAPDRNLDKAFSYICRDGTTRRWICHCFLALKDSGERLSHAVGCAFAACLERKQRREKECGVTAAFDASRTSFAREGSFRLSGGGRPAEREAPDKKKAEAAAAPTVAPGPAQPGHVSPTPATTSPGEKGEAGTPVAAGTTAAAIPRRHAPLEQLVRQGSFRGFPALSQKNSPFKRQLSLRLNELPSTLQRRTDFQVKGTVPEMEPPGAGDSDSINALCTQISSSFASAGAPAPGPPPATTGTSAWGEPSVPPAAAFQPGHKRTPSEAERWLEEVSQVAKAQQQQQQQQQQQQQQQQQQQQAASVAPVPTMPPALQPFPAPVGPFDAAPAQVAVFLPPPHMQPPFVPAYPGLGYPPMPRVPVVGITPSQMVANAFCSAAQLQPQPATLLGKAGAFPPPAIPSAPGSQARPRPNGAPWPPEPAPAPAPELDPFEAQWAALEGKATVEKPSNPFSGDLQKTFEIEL
UniProt Q8TEM1: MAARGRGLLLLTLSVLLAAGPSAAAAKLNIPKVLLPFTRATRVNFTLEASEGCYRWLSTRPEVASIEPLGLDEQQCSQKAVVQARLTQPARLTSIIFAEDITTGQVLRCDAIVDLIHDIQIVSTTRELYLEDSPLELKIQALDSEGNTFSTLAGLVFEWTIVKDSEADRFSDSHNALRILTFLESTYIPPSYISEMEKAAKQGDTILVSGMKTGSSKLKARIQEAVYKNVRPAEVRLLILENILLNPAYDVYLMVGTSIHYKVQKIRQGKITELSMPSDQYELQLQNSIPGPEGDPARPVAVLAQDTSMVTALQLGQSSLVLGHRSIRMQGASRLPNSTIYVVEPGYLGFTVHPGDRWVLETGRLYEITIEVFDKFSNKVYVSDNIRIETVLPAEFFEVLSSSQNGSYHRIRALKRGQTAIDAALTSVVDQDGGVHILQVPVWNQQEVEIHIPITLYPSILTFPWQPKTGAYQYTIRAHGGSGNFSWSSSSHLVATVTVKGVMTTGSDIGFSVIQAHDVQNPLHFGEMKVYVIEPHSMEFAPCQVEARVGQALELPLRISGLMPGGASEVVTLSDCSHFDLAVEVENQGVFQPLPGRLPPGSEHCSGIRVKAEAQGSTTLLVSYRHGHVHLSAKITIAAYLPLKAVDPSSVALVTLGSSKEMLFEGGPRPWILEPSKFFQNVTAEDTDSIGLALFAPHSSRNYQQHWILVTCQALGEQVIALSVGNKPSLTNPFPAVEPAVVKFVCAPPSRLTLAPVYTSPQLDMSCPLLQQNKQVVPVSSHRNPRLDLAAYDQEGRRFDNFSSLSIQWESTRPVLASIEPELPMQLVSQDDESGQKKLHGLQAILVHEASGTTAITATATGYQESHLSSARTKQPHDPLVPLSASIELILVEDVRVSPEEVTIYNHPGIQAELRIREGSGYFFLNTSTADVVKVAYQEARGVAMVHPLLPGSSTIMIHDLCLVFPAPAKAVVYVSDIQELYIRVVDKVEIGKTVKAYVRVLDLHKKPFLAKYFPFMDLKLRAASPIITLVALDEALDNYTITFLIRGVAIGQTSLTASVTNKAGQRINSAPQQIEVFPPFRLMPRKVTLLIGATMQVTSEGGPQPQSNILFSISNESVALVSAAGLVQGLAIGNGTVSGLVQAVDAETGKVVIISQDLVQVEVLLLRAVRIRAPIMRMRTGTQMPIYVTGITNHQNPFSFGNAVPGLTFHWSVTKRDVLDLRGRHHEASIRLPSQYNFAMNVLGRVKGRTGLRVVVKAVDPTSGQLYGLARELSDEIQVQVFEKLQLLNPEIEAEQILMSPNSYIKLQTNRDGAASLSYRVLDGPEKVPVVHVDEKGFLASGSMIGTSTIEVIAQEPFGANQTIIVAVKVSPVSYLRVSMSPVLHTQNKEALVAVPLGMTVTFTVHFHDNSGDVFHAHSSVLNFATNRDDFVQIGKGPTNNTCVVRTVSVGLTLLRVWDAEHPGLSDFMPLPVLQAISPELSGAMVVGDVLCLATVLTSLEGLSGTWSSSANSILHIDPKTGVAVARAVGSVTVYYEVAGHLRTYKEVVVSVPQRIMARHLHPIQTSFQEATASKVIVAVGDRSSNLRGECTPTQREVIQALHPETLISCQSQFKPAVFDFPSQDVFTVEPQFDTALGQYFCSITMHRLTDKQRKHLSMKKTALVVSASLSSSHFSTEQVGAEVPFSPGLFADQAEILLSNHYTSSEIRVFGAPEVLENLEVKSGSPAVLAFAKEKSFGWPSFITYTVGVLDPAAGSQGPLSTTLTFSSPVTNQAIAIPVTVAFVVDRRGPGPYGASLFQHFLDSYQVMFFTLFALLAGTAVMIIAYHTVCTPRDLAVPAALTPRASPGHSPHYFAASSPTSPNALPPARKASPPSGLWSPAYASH
UniProt Q9NRP0: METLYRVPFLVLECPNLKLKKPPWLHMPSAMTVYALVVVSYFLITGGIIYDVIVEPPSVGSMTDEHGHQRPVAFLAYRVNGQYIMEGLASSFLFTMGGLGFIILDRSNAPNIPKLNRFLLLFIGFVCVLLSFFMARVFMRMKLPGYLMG

Tests used:
Assay in all cases: log2 fold change, soluble protein after heating vs DMSO (PISA); higher = thermal stabilisation; K562 cells, 10 uM, 30 min; active = over 0.2 and 3.5 SD of the protein, either way, in both replicates (recomputed)
[1] = compound: CS(=O)(=O)c1ccc(-c2cnc(N)c(C(=O)Nc3ccccc3)n2)cc1
Summary of the method: (§1)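 Values are thermal stability changes relative to control samples and are taken from duplicates. They are stated as log2 fold changes. Before quantification by TMTpro 16plex LC-MS/MS with equalised channel sums, K562 cells at 2×10^6 cells/mL were treated with 10 μM compound for 30 min, heated in aliquots for 3 min across 48°C-58°C, pooled, extracted in PBS with 0.5% NP-40 at 4°C, and centrifuged at 21,000xg for 90 min to give the soluble supernatant.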

crizotinib = compound: C[C@@H](Oc1cc(-c2cnn(C3CCNCC3)c2)cnc1N)c1c(Cl)ccc(F)c1Cl [crizotinib]
Summary of the method: as §1

[2] = compound: C[C@@H]1COCCN1C2=NC(=NC(=C2)C3(CC3)S(=O)(=O)C)C4=C5C=CNC5=CC=C4
Summary of the method: as §1

[3] = compound: C[C@H](C1=CC=C(C=C1)C(=O)NC2=C3C=CNC3=NC=C2)N
Summary of the method: as §1

duvelisib = compound: C[C@H](Nc1ncnc2nc[nH]c12)c1cc2cccc(Cl)c2c(=O)n1-c1ccccc1 [duvelisib]
Summary of the method: as §1

gandotinib = compound: Cc1cc(Nc2cc(CN3CCOCC3)c3nc(C)c(Cc4ccc(Cl)cc4F)n3n2)n[nH]1 [gandotinib]
Summary of the method: as §1

tozasertib = compound: Cc1cc(Nc2cc(N3CCN(C)CC3)nc(Sc3ccc(NC(=O)C4CC4)cc3)n2)n[nH]1 [tozasertib]
Summary of the method: as §1

[4] = compound: Cc1cc(SCc2sc(-c3ccc(C(F)(F)F)cc3)nc2C)ccc1OCC(=O)O
Summary of the method: as §1

doramapimod = compound: Cc1ccc(-n2nc(C(C)(C)C)cc2NC(=O)Nc2ccc(OCCN3CCOCC3)c3ccccc23)cc1 [doramapimod]
Summary of the method: as §1

ispinesib = compound: Cc1ccc(C(=O)N(CCCN)[C@@H](c2nc3cc(Cl)ccc3c(=O)n2Cc2ccccc2)C(C)C)cc1 [ispinesib]
Summary of the method: as §1

Measured: log2 fold change

ORC4 (UniProt O43929)
inactive: [1] -0.002 | crizotinib -0.241 | [2] 0.141 | [3] -0.035 | duvelisib -0.012 | gandotinib -0.121 | tozasertib -0.041 | [4] 0.103 | doramapimod -0.03 | ispinesib 0.006

NUP153 (UniProt P49790)
inactive: [1] 0.042 | crizotinib -0.009 | [2] -0.043 | [3] -0.012 | duvelisib -0.041 | gandotinib 0.083 | tozasertib 0.029 | [4] -0.055 | doramapimod -0.002 | ispinesib -0.013

OMA1 (UniProt Q96E52)
inactive: [1] 0.121 | crizotinib 0.027 | [2] 0.006 | [3] -0.023 | duvelisib 0.036 | gandotinib -0.172 | tozasertib -0.049 | [4] 0.029 | doramapimod -0.067 | ispinesib -0.018

P4HA1 isoform 2 (UniProt P13674)
inactive: [1] 0.066 | crizotinib 0.045 | [2] -0.024 | [3] 0.154 | duvelisib 0.032 | gandotinib 0.136 | tozasertib 0.035 | [4] 0.098 | doramapimod 0.004 | ispinesib -0.014

NSUN4 (UniProt Q96CB9)
inactive: [1] -0.04 | crizotinib -0.1 | [2] -0.039 | [3] 0.123 | duvelisib -0.046 | gandotinib -0.017 | tozasertib 0.008 | [4] 0.046 | doramapimod 0.048 | ispinesib -0.105

NUP37 (UniProt Q8NFH4)
inactive: [1] -0.087 | crizotinib 0.013 | [2] -0.007 | [3] -0.125 | duvelisib 0.035 | gandotinib -0.018 | tozasertib 0.021 | [4] 0.012 | doramapimod -0.054 | ispinesib 0.068

NUBPL (UniProt Q8TB37)
inactive: [1] -0.052 | crizotinib -0.066 | [2] 0.072 | [3] 0.048 | duvelisib -0.046 | gandotinib 0.042 | tozasertib -0.006 | [4] -0.067 | doramapimod -0.007 | ispinesib -0.016

OGT (UniProt O15294)
inactive: [1] 0.028 | crizotinib 0.01 | [2] 0.003 | [3] 0.014 | duvelisib 0.019 | gandotinib -0.016 | tozasertib 0.012 | [4] 0.049 | doramapimod -0.007 | ispinesib 0.041

NUP188 (UniProt Q5SRE5)
inactive: [1] 0.031 | crizotinib -0.03 | [2] 0.057 | [3] -0.008 | duvelisib -0.003 | gandotinib -0.114 | tozasertib 0.012 | [4] 0.063 | doramapimod 0.007 | ispinesib 0.001

NUP35 (UniProt Q8NFH5)
inactive: [1] 0.036 | crizotinib -0.04 | [2] 0.12 | [3] -0.022 | duvelisib 0.072 | gandotinib 0.023 | tozasertib -0.026 | [4] -0.014 | doramapimod 0.111 | ispinesib 0.001

Copied from the entries so far (two entries):
NUP188 (UniProt Q5SRE5)
inactive: [1] 0.031 | crizotinib -0.03 | [2] 0.057 | [3] -0.008 | duvelisib -0.003 | gandotinib -0.114 | tozasertib 0.012 | [4] 0.063 | doramapimod 0.007 | ispinesib 0.001

NUP35 (UniProt Q8NFH5)
inactive: [1] 0.036 | crizotinib -0.04 | [2] 0.12 | [3] -0.022 | duvelisib 0.072 | gandotinib 0.023 | tozasertib -0.026 | [4] -0.014 | doramapimod 0.111 | ispinesib 0.001

The results go on.

NUP54 (UniProt Q7Z3B4)
inactive: [1] 0.015 | crizotinib -0.043 | [2] 0.019 | [3] 0.013 | duvelisib -0.011 | gandotinib -0.023 | tozasertib -0.038 | [4] 0.044 | doramapimod 0.015 | ispinesib -0.049

NSUN5 isoform 2 (UniProt Q96P11)
inactive: [1] -0.085 | crizotinib -0.001 | [2] -0.007 | [3] 0.183 | duvelisib -0.005 | gandotinib 0.037 | tozasertib -0.015 | [4] -0.141 | doramapimod 0.006 | ispinesib -0.025

NUDT19 (UniProt A8MXV4)
inactive: [1] 0.041 | crizotinib 0.109 | [2] 0.087 | [3] -0.093 | duvelisib 0.066 | gandotinib 0.058 | tozasertib 0.017 | [4] 0.058 | doramapimod -0.056 | ispinesib 0.15

OLA1 (UniProt Q9NTK5)
inactive: [1] -0.006 | crizotinib -0.028 | [2] 0.04 | [3] -0.058 | duvelisib 0.046 | gandotinib -0.027 | tozasertib -0.013 | [4] -0.005 | doramapimod -0.021 | ispinesib 0.036

NSUN6 (UniProt Q8TEA1)
inactive: [1] 0.042 | crizotinib 0.008 | [2] 0.062 | [3] -0.022 | duvelisib 0.073 | gandotinib -0.036 | tozasertib 0.007 | [4] 0.029 | doramapimod -0.038 | ispinesib -0.001

PABPC1 (UniProt P11940)
inactive: [1] -0.09 | crizotinib 0.044 | [2] -0.245 | [3] 0.082 | duvelisib -0.111 | gandotinib 0.015 | tozasertib 0.035 | [4] 0.015 | doramapimod -0.012 | ispinesib -0.112

NUDT9 (UniProt Q9BW91)
inactive: [1] -0.016 | crizotinib 0.074 | [2] 0.077 | [3] 0.005 | duvelisib 0.039 | gandotinib -0.001 | tozasertib 0.061 | [4] 0.048 | doramapimod -0.057 | ispinesib 0.03

NUCB1 (UniProt Q02818)
inactive: [1] -0.037 | crizotinib -0.01 | [2] -0.064 | [3] -0.017 | duvelisib -0.007 | gandotinib 0.009 | tozasertib -0.008 | [4] -0.054 | doramapimod 0.018 | ispinesib 0.034

OARD1 (UniProt Q9Y530)
inactive: [1] 0.025 | crizotinib 0.022 | [2] 0.007 | [3] 0.061 | duvelisib -0.002 | tozasertib 0.014 | [4] 0.021 | doramapimod 0.049 | ispinesib 0.034

OTUD6B (UniProt Q8N6M0)
inactive: [1] 0.013 | crizotinib -0.146 | [2] 0.024 | [3] 0 | gandotinib -0.086 | [4] 0.122 | doramapimod 0.009 | ispinesib -0.165

NUDT16 (UniProt Q96DE0)
inactive: [1] 0.054 | crizotinib 0.052 | [2] 0.042 | [3] -0.169 | gandotinib 0.063 | [4] 0 | doramapimod -0.034 | ispinesib 0.067

OXR1 (UniProt Q8N573)
inactive: [1] 0.02 | crizotinib -0.074 | [2] 0.014 | [3] -0.048 | gandotinib 0 | [4] -0.011 | doramapimod 0.001 | ispinesib -0.095

NUMBL (UniProt Q9Y6R0)
inactive: [1] 0.13 | crizotinib -0.021 | [2] 0.056 | [3] 0.044 | gandotinib -0.025 | [4] 0.108 | doramapimod 0.109 | ispinesib -0.187

NUP205 (UniProt Q92621)
inactive: [1] 0.001 | crizotinib -0.054 | [2] 0.002 | [3] -0.019 | gandotinib -0.17 | [4] 0.094 | doramapimod 0 | ispinesib -0.018

NUP210 (UniProt Q8TEM1)
inactive: [1] -0.039 | [2] 0.005 | [3] -0.006 | gandotinib -0.083 | [4] 0.047 | doramapimod 0.002
active: crizotinib -0.235 | ispinesib -0.351

OSTC (UniProt Q9NRP0)
inactive: [1] 0.044 | crizotinib -0.047 | [2] 0.132 | [3] -0.089 | gandotinib -0.112 | [4] -0.042 | doramapimod 0.028 | ispinesib -0.117

OAT (UniProt P04181)
inactive: [1] -0.003 | crizotinib -0.123 | [2] 0.053 | [3] -0.083 | gandotinib -0.03 | [4] 0.018 | doramapimod 0.037
active: ispinesib -0.233
